Results from PMC9321335, “Palmitic Acid-Conjugated Radiopharmaceutical for Integrin αvβ3-Targeted Radionuclide Therapy” (Pharmaceutics, 2022).

How the values were obtained:
[1] = set-up: species or system C57BL/6 mice; conditions: mouse, in vivo
Method: Female KM mice were randomly divided into three groups (n = 5). Each group was injected intravenously with 0.74 MBq ^177Lu-Palm-3PRGD2, ^177Lu-3PRGD2, or ^177Lu-Palm. Blood samples obtained from the canthus vein were collected at different time points post injection (p.i.), weighed, and evaluated using a γ-counter. The results are presented as the percentage injected activity per gram (%IA/g). Nonlinear regression (curve fit) followed by two phase decay was performed using GraphPad Prism version 9.0.0 for Windows, GraphPad Software, San Diego, CA, USA, www.graphpad.com (accessed on 22 May 2022). And then the half-lives values were calculated and determined. Blood clearance studies were performed in normal KM mice. […] Blood clearance studies were also performed in C57BL/6 mice.

[2] = set-up: species or system KM mice; conditions: mouse, in vivo
Method: Female KM mice were randomly divided into three groups (n = 5). Each group was injected intravenously with 0.74 MBq ^177Lu-Palm-3PRGD2, ^177Lu-3PRGD2, or ^177Lu-Palm. Blood samples obtained from the canthus vein were collected at different time points post injection (p.i.), weighed, and evaluated using a γ-counter. The results are presented as the percentage injected activity per gram (%IA/g). Nonlinear regression (curve fit) followed by two phase decay was performed using GraphPad Prism version 9.0.0 for Windows, GraphPad Software, San Diego, CA, USA, www.graphpad.com (accessed on 22 May 2022). And then the half-lives values were calculated and determined.

Biodistribution study = conditions: C57BL/6, mouse, in vivo, 0.74 MBq, total radioactivity
Method: Mice bearing MC38 xenografts were randomly divided into 10 groups (n = 4). The mice in five groups were administered 0.74 MBq/20 µCi of ^177Lu-Palm-3PRGD2 and sacrificed at 1, 4, 12, 24, and 72 h p.i. The mice on one group was injected with 0.74 MBq/20 µCi of ^177Lu-Palm-3PRGD2 and 500 μg (242 nmol) 3PRGD2 as a blocking agent and sacrificed at 1 h p.i. […] Tumors and major organs were harvested, weighed and measured for radioactivity using a γ-counter. The organ uptake was calculated as the percentage injected activity per gram (%IA/g). The effective absorbed dose in humans estimated from mouse biodistribution data by using a dedicated software (OLINDA 1.0).

SMILES	Blood circulation time, times longer than ^177Lu-3PRGD2 [1]	Blood AUC, times higher than ^177Lu-3PRGD2 [2] [times]	Circulation time in blood, times longer than ^177Lu-3PRGD2 [2]	tissue uptake at 4 h (Biodistribution study) [%ID/g]
CCCCCCCCCCCCCCCC(=O)N[C@@H](CCC(=O)NCCCC[C@H](NC(=O)CN1CCN(CC(=O)O)CCN(CC(=O)O)CCN(CC(=O)O)CC1)C(=O)NCCOCCOCCOCCOCCC(=O)N[C@@H](CCC(=O)NCCOCCOCCOCCOCCC(=O)NCCCC[C@@H]1NC(=O)[C@@H](Cc2ccccc2)NC(=O)[C@H](CC(=O)O)NC(=O)CNC(=O)[C@H](CCCNC(=N)N)NC1=O)C(=O)NCCOCCOCCOCCOCCC(=O)NCCCC[C@@H]1NC(=O)[C@@H](Cc2ccccc2)NC(=O)[C@H](CC(=O)O)NC(=O)CNC(=O)[C@H](CCCNC(=N)N)NC1=O)C(=O)O [^177Lu-Palm-3PRGD2, [^177Lu]Lu-DOTA-Palm-3PRGD2, metal not drawn]	4–6 times	~10	more than 6 times	–
N=C(N)NCCC[C@@H]1NC(=O)[C@H](CCCCNC(=O)CCOCCOCCOCCOCCNC(=O)CC[C@H](NC(=O)CCOCCOCCOCCOCCNC(=O)CN2CCN(CC(=O)O)CCN(CC(=O)O)CCN(CC(=O)O)CC2)C(=O)NCCOCCOCCOCCOCCC(=O)NCCCC[C@@H]2NC(=O)[C@@H](Cc3ccccc3)NC(=O)[C@H](CC(=O)O)NC(=O)CNC(=O)[C@H](CCCNC(=N)N)NC2=O)NC(=O)[C@@H](Cc2ccccc2)NC(=O)[C@H](CC(=O)O)NC(=O)CNC1=O [^177Lu-3PRGD2, [^177Lu]Lu-DOTA-3PRGD2, metal not drawn]	–	–	–	4.91
